Reference: doi:10.64898/2025.12.17.694969

T1: Symplekin with twin-StrepII tag (S. pombe Symplekin/Pta1) (S. pombe) (UniProt Q10222)
T1 sequence: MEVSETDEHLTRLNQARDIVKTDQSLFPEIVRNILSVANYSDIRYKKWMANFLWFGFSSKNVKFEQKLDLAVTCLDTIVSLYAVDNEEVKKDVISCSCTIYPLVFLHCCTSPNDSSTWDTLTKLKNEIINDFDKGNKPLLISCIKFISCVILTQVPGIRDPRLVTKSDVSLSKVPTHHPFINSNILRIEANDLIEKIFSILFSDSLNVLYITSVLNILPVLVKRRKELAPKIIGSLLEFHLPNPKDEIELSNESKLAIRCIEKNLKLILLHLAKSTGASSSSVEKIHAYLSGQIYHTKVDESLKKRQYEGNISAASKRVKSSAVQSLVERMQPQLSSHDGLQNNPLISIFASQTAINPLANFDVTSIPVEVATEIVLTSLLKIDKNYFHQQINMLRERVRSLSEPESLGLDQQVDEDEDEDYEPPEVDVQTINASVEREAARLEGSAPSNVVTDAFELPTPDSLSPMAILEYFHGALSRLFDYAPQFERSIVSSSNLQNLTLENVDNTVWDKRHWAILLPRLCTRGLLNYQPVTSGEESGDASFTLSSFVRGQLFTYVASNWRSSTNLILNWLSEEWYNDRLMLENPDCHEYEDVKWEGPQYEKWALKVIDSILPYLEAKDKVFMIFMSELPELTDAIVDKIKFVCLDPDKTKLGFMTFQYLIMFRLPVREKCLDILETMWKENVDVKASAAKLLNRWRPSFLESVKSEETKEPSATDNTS

B1: SymplekinNTD (Symplekin residues 1–307) (domain or fragment, UniProt Q10222 1-307)
chain: MEVSETDEHLTRLNQARDIVKTDQSLFPEIVRNILSVANYSDIRYKKWMANFLWFGFSSKNVKFEQKLDLAVTCLDTIVSLYAVDNEEVKKDVISCSCTIYPLVFLHCCTSPNDSSTWDTLTKLKNEIINDFDKGNKPLLISCIKFISCVILTQVPGIRDPRLVTKSDVSLSKVPTHHPFINSNILRIEANDLIEKIFSILFSDSLNVLYITSVLNILPVLVKRRKELAPKIIGSLLEFHLPNPKDEIELSNESKLAIRCIEKNLKLILLHLAKSTGASSSSVEKIHAYLSGQIYHTKVDESLKKRQ

Tests used:
[1] = target: T1, Symplekin with twin-StrepII tag (S. pombe Symplekin/Pta1) (S. pombe); test: cross-linking
[2] = target: WDR82 (S. pombe WDR82/Swd2.2) (S. pombe); test: crystal structure

| Molecule | binding [1] | binding [2] |
| --- | --- | --- |
| WDR82 (S. pombe WDR82/Swd2.2) | binds |  |
| B1 |  | binds |

Results are given in words; binding and its absence hold for the method and conditions named. A result given as binding can be weak or reduced; the word gives no strength. For some assays here: Sequences can lack the tags named with a protein.
